# Where a name gives a salt, the structure may show the parent alone. The list shows a part of the results. Hit calls seldom repeat between salt and free forms of one compound.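 Kinases were expressed as nanoluciferase fusions in K562 cells and luminescence was read every 4 h between 2 and 18 h as percent of control, DMSO set to 100% and a positive control to 0%. A time point counts as decreased when the signal drops significantly (2 sigma). The hit call is the authors' own, does not follow from the count of time points alone, and its rule is not shown.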
# Sequences of proteins named here, by UniProt entry; tags and fusion partners are left off. A change or cut given only in a name is not applied to a line headed by its entry.
# UniProt Q15208: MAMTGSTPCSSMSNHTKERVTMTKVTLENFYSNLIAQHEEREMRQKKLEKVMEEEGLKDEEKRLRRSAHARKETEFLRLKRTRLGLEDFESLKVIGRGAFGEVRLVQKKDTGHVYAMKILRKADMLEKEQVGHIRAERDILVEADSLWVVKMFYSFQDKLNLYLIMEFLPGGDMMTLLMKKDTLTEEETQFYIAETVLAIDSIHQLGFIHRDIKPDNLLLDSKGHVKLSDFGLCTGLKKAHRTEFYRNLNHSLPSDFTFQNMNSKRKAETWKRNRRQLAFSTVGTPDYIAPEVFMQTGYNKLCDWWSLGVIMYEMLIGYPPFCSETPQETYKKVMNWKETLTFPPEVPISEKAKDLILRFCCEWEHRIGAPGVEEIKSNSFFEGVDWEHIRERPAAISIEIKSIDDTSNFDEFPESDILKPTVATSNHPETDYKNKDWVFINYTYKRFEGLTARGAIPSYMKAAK
# UniProt P42680: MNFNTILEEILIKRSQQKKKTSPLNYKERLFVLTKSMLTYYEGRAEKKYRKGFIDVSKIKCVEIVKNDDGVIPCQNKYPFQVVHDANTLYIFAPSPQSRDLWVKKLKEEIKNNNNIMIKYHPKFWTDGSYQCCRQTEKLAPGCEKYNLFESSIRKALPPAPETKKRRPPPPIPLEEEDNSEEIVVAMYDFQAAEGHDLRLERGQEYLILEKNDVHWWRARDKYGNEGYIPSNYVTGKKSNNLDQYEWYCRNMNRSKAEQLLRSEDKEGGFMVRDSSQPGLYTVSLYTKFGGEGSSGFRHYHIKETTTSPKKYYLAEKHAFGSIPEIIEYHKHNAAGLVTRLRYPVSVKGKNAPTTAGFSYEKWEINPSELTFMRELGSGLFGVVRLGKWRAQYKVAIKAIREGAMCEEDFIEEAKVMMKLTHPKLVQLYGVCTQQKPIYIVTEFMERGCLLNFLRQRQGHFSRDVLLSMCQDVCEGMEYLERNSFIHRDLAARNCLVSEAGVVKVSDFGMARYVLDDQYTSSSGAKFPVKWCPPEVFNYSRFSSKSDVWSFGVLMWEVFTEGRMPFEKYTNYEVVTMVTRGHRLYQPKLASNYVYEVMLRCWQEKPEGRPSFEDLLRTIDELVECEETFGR
# UniProt P29597: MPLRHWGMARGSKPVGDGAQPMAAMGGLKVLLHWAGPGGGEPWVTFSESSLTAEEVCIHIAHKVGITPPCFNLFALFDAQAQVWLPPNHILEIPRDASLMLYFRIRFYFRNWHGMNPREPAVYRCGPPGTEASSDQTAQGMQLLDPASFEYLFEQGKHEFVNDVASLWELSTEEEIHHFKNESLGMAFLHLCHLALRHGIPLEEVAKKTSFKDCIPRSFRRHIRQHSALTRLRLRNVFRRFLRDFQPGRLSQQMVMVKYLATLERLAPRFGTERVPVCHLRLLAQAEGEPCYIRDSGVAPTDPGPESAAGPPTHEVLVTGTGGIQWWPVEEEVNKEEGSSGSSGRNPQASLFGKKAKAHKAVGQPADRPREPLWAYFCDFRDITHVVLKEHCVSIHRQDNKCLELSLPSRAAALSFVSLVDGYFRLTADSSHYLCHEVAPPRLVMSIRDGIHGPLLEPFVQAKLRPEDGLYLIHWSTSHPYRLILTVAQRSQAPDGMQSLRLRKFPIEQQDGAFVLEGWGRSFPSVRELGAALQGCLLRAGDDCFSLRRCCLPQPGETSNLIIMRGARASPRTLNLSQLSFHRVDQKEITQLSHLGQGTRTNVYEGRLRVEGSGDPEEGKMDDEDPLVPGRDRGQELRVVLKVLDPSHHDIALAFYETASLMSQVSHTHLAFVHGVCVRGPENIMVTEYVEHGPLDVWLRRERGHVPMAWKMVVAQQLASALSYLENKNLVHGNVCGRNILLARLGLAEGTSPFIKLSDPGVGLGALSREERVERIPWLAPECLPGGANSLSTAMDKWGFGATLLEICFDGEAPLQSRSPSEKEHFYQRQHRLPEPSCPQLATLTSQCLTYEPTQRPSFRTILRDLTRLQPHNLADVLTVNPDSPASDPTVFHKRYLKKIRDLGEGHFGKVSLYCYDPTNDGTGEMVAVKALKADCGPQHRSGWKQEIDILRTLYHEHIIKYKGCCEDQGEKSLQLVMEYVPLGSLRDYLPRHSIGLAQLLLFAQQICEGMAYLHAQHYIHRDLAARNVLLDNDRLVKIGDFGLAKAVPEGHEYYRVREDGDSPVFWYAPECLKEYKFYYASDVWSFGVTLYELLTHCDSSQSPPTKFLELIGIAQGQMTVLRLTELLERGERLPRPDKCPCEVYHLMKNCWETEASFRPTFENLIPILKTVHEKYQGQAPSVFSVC
# UniProt Q6PHR2: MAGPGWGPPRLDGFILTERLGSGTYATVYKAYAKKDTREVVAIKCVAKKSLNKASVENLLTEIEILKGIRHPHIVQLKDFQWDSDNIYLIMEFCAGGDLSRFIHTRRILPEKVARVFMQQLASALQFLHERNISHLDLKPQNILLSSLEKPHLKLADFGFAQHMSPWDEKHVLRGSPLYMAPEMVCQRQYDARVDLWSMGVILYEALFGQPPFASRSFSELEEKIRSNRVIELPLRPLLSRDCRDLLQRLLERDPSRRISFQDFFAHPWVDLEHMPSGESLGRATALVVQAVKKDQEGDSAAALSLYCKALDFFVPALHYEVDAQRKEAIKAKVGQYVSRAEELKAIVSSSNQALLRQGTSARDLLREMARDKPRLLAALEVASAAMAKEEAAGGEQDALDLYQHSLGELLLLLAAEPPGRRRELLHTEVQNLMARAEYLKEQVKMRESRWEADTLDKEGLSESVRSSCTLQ
# UniProt P07947, whole entry, looked up: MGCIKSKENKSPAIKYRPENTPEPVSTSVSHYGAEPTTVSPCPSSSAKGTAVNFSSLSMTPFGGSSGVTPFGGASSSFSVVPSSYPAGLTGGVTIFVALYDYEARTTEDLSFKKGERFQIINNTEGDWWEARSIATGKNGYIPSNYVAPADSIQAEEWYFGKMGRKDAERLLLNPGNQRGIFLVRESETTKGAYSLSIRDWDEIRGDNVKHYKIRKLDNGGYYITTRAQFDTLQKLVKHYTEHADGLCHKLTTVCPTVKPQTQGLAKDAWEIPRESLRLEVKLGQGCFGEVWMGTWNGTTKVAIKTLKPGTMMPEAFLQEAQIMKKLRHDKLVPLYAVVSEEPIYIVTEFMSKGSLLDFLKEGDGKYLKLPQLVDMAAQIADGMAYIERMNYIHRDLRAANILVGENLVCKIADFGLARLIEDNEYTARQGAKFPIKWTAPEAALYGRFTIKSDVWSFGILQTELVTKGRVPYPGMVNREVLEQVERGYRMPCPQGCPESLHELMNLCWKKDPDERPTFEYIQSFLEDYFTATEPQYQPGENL
# UniProt P43403: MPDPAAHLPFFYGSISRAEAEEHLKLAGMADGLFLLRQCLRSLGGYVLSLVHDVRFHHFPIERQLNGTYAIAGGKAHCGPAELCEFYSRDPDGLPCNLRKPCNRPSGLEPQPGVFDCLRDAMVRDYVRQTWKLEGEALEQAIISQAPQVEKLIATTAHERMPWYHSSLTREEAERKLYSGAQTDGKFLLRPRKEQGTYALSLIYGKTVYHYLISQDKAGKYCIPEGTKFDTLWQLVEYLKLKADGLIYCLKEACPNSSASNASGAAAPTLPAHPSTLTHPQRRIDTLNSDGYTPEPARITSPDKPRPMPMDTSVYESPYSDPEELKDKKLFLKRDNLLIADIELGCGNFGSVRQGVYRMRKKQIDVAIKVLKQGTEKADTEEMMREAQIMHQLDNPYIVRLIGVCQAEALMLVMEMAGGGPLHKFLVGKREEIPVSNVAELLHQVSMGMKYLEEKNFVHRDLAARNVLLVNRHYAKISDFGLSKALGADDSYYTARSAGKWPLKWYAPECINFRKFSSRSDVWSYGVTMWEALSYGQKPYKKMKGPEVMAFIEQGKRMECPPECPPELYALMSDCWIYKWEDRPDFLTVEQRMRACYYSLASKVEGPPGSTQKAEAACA
# UniProt P00519, whole entry: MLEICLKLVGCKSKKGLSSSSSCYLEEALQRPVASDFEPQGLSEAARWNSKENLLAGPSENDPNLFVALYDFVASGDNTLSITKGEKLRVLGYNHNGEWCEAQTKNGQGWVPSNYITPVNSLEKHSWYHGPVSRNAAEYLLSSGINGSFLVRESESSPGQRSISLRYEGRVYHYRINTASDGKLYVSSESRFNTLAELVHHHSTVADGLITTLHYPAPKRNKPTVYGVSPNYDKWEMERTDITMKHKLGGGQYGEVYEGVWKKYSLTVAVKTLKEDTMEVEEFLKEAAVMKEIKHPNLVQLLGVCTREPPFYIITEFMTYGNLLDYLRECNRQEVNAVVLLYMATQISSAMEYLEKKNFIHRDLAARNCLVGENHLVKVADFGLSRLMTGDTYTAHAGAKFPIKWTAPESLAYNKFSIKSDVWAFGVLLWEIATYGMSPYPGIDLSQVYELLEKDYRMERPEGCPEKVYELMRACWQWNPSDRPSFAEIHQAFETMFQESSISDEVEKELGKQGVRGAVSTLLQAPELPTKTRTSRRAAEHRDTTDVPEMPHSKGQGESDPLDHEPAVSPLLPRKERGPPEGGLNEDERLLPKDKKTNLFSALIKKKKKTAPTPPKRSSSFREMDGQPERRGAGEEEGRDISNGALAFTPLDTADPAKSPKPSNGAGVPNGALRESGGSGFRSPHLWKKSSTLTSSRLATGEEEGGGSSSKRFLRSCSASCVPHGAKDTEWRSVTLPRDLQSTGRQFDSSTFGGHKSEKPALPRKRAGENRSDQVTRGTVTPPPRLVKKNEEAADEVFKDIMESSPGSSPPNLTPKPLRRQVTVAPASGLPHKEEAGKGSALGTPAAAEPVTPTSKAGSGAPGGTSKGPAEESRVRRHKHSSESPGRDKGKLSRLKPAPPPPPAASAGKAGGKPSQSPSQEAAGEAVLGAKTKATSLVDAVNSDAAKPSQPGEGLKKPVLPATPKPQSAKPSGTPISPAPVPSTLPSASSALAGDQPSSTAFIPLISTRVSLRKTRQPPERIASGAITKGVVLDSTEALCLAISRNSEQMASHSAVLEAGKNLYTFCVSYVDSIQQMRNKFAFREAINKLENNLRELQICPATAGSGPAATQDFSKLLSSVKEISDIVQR
# UniProt P31749: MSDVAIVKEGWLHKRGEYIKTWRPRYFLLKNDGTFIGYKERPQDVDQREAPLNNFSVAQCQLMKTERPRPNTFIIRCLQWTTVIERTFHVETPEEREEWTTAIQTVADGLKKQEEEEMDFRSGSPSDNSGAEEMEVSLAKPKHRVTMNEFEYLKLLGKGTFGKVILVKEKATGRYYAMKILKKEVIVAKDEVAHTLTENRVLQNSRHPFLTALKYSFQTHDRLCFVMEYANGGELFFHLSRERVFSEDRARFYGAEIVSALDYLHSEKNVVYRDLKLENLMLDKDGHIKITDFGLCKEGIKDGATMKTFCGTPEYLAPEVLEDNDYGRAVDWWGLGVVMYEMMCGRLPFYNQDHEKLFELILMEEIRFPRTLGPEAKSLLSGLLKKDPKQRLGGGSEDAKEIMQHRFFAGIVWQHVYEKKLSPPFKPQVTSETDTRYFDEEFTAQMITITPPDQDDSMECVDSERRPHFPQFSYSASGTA
# Columns and labels:
# Details in all cases: K562; 2-18 h
# STK38 = STK38 (UniProt Q15208); assay: kinase-Nluc reporter destabilization hit call (1 = scored as downregulated) (binary); higher = compound decreases kinase abundance
# SYK = SYK (UniProt P43405); assay: as above
# TEC = TEC (UniProt P42680); assay: as above
# TYK2 = TYK2 (UniProt P29597); assay: as above
# ULK3 = ULK3 (UniProt Q6PHR2); assay: as above
# YES1 = YES1 (UniProt P07947); assay: as above
# ZAK = ZAK (UniProt Q9NYL2); assay: as above
# ZAP70 = ZAP70 (UniProt P43403); assay: as above
# ABL1 = ABL1 (UniProt P00519); assay: number of time points (of 5) at which kinase-Nluc abundance scored as decreased, DMSO-normalised (count); higher = more persistent destabilization
# AKT1 = AKT1 (UniProt P31749); assay: as above
Compound,kinase-Nluc reporter destabilization hit call (STK38),kinase-Nluc reporter destabilization hit call (SYK),kinase-Nluc reporter destabilization hit call (TEC),kinase-Nluc reporter destabilization hit call (TYK2),kinase-Nluc reporter destabilization hit call (ULK3),kinase-Nluc reporter destabilization hit call (YES1),kinase-Nluc reporter destabilization hit call (ZAK),kinase-Nluc reporter destabilization hit call (ZAP70),number of time points (ABL1),number of time points (AKT1)
N#CC(c1ccnc(OCc2ccc(CN3CCOCC3)cc2)n1)c1nc2ccccc2s1 (stereo not given) [Bentamapimod] (2.5 µM),inactive: 0,inactive: 0,inactive: 0,inactive: 0,inactive: 0,inactive: 0,inactive: 0,inactive: 0,0,0
CC1(C)Cc2c(sc(NC(=S)NC(=O)c3ccccc3)c2C(=O)O)CO1 (10 µM),inactive: 0,inactive: 0,inactive: 0,inactive: 0,inactive: 0,inactive: 0,inactive: 0,inactive: 0,0,0
Cc1ccc(NC(=O)c2ccnc(C(F)(F)F)c2)cc1-c1cc(OCCO)nc(N2CCOCC2)c1 (10 µM),inactive: 0,inactive: 0,inactive: 0,inactive: 0,inactive: 0,inactive: 0,inactive: 0,inactive: 0,0,0
COc1cc2ncnc(Nc3ccccc3)c2cc1OC (10 µM),inactive: 0,inactive: 0,inactive: 0,inactive: 0,inactive: 0,inactive: 0,inactive: 0,inactive: 0,0,0
O=C(O)c1cccc(CN2C(=O)/C(=C(\c3ccccc3)c3ccc(Cl)cc3)c3ccccc32)c1 (2.5 µM),inactive: 0,inactive: 0,inactive: 0,inactive: 0,inactive: 0,inactive: 0,inactive: 0,inactive: 0,0,0
CCn1c(=O)c(-c2cc[nH]n2)cc2c(C)nc(N)nc21 [Voxtalisib] (10 µM),inactive: 0,inactive: 0,inactive: 0,inactive: 0,inactive: 0,inactive: 0,inactive: 0,inactive: 0,0,0
Cc1ncc(NC(=O)NC2c3ccccc3-c3ccccc32)c(-c2ccccc2)n1 (10 µM),inactive: 0,inactive: 0,inactive: 0,inactive: 0,inactive: 0,inactive: 0,inactive: 0,inactive: 0,0,0
CC(C)(C)n1nc(Cc2ccccc2O)c2c(N)ncnc21 (10 µM),inactive: 0,inactive: 0,inactive: 0,active: 1,inactive: 0,inactive: 0,inactive: 0,inactive: 0,0,0
Cc1cccc2c3c(ccc12)C(=O)C1=C(OCC1C)C3=O (stereo not given) [Dihydroisotanshinone I] (2.5 µM),inactive: 0,inactive: 0,inactive: 0,inactive: 0,inactive: 0,inactive: 0,inactive: 0,inactive: 0,0,0
CNC(=O)c1cc2c(Oc3ccc(NC(=S)NC(=O)Cc4ccccc4)cc3F)ccnc2cc1OC [TAS-115 mesylate] (10 µM),inactive: 0,inactive: 0,inactive: 0,inactive: 0,inactive: 0,inactive: 0,inactive: 0,inactive: 0,0,0
O=[N+]([O-])c1ccc(Nc2nc(N3CCOCC3)nc(N3CCOCC3)n2)cc1 (10 µM),inactive: 0,inactive: 0,inactive: 0,inactive: 0,inactive: 0,inactive: 0,inactive: 0,inactive: 0,0,0
O=C(N[C@@H](C1CC1)C(F)(F)F)c1cc(-c2cnn3cc(-c4ccc(F)cc4)cnc23)cs1 (10 µM),inactive: 0,inactive: 0,inactive: 0,inactive: 0,inactive: 0,inactive: 0,inactive: 0,inactive: 0,0,0
FC(F)(F)c1ccc(/C=C/c2nc(COc3ccc(CCCCn4ccnn4)cc3)co2)cc1 [Mubritinib] (10 µM),inactive: 0,inactive: 0,inactive: 0,inactive: 0,inactive: 0,inactive: 0,inactive: 0,inactive: 0,0,0
CN(c1ccc(NC(=O)Nc2ccc(OC(F)(F)F)cc2)cc1)c1ccnc(Nc2cccc(S(N)(=O)=O)c2)n1 (2.5 µM),inactive: 0,inactive: 0,inactive: 0,inactive: 0,inactive: 0,inactive: 0,inactive: 0,inactive: 0,2,0
CCCCCCCC/C=C\CCCCCCCCCCCC(=O)O [Erucic acid] (10 µM),inactive: 0,inactive: 0,inactive: 0,inactive: 0,inactive: 0,inactive: 0,inactive: 0,inactive: 0,0,0

# As entered above:
# `COc1cc2ncnc(Nc3ccccc3)c2cc1OC` (10 µM) | kinase-Nluc reporter destabilization hit call (TYK2): inactive: 0
# `CC(C)(C)n1nc(Cc2ccccc2O)c2c(N)ncnc21` (10 µM) | number of time points (AKT1): 0
